For one assay, the target named is CBP (human) (UniProt Q92793). Briefly: AP-MS and/or BioID2 in HEK293 cells (method not told for the pair).
A further assay addresses p300 (human) (UniProt Q09472). Described as above.

Sequences of proteins named here, by UniProt entry; tags and fusion partners are left off. Residues count along the entry.
UniProt Q92793, residues 2-2442: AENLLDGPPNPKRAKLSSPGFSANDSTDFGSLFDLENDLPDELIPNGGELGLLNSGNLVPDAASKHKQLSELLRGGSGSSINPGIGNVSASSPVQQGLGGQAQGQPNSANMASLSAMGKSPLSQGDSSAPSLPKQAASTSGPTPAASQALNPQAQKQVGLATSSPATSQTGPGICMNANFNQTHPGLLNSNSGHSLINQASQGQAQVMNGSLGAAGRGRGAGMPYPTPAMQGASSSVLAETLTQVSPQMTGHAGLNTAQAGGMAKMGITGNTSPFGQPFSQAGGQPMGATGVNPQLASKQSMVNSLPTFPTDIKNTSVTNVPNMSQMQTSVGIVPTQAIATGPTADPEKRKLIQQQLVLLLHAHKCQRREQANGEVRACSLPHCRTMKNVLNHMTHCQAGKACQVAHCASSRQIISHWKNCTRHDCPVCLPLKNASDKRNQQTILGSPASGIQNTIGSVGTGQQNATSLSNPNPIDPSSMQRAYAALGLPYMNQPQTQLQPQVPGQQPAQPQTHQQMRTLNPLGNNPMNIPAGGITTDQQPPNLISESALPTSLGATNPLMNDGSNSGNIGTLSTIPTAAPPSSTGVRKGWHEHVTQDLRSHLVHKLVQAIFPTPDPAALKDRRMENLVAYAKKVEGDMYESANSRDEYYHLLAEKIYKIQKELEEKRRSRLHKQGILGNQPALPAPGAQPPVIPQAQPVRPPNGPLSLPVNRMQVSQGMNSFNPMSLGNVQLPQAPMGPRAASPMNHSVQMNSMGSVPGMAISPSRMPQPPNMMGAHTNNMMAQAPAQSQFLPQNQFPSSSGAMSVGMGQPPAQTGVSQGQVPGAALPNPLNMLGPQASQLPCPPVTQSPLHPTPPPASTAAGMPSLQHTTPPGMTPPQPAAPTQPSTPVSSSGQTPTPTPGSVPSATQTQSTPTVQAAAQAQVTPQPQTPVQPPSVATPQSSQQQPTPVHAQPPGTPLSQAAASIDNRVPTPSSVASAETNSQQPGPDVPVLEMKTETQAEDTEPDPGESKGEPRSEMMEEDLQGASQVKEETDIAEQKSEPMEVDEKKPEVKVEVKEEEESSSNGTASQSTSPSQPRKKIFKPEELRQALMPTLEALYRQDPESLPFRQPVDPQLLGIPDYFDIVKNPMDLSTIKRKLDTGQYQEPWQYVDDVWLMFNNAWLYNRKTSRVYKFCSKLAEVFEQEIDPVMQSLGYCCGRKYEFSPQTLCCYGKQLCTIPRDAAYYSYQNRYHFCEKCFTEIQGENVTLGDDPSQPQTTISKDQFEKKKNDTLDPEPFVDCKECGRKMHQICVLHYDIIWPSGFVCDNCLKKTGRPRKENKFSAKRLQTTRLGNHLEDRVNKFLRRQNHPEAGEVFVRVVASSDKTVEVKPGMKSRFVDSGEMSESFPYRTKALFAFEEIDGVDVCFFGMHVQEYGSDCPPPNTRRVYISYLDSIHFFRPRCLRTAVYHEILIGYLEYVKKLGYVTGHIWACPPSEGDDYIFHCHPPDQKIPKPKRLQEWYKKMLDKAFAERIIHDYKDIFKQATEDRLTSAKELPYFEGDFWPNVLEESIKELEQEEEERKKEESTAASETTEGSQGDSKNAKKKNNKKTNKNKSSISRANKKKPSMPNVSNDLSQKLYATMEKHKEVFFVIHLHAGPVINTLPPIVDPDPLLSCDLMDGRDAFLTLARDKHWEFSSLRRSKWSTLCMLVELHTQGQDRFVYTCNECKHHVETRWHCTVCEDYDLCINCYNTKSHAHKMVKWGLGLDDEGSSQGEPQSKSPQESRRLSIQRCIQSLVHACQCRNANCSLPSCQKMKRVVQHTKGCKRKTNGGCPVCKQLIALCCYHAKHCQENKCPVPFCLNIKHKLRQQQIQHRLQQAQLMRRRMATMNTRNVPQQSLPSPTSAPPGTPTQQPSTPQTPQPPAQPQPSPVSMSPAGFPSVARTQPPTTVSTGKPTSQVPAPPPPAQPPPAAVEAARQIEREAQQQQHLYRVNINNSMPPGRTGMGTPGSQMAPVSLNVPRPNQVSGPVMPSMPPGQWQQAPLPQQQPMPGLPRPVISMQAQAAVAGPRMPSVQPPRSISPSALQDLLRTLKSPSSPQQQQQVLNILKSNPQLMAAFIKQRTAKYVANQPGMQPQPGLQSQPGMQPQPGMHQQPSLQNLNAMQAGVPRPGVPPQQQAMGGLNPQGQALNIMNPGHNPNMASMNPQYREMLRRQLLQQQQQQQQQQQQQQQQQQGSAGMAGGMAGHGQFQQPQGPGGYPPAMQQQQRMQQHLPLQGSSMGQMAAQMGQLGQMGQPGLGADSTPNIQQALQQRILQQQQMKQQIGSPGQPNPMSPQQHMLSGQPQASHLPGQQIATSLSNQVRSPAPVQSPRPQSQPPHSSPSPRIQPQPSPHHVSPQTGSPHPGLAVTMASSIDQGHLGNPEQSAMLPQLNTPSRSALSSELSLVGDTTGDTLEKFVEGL
UniProt Q09472, residues 2-2414: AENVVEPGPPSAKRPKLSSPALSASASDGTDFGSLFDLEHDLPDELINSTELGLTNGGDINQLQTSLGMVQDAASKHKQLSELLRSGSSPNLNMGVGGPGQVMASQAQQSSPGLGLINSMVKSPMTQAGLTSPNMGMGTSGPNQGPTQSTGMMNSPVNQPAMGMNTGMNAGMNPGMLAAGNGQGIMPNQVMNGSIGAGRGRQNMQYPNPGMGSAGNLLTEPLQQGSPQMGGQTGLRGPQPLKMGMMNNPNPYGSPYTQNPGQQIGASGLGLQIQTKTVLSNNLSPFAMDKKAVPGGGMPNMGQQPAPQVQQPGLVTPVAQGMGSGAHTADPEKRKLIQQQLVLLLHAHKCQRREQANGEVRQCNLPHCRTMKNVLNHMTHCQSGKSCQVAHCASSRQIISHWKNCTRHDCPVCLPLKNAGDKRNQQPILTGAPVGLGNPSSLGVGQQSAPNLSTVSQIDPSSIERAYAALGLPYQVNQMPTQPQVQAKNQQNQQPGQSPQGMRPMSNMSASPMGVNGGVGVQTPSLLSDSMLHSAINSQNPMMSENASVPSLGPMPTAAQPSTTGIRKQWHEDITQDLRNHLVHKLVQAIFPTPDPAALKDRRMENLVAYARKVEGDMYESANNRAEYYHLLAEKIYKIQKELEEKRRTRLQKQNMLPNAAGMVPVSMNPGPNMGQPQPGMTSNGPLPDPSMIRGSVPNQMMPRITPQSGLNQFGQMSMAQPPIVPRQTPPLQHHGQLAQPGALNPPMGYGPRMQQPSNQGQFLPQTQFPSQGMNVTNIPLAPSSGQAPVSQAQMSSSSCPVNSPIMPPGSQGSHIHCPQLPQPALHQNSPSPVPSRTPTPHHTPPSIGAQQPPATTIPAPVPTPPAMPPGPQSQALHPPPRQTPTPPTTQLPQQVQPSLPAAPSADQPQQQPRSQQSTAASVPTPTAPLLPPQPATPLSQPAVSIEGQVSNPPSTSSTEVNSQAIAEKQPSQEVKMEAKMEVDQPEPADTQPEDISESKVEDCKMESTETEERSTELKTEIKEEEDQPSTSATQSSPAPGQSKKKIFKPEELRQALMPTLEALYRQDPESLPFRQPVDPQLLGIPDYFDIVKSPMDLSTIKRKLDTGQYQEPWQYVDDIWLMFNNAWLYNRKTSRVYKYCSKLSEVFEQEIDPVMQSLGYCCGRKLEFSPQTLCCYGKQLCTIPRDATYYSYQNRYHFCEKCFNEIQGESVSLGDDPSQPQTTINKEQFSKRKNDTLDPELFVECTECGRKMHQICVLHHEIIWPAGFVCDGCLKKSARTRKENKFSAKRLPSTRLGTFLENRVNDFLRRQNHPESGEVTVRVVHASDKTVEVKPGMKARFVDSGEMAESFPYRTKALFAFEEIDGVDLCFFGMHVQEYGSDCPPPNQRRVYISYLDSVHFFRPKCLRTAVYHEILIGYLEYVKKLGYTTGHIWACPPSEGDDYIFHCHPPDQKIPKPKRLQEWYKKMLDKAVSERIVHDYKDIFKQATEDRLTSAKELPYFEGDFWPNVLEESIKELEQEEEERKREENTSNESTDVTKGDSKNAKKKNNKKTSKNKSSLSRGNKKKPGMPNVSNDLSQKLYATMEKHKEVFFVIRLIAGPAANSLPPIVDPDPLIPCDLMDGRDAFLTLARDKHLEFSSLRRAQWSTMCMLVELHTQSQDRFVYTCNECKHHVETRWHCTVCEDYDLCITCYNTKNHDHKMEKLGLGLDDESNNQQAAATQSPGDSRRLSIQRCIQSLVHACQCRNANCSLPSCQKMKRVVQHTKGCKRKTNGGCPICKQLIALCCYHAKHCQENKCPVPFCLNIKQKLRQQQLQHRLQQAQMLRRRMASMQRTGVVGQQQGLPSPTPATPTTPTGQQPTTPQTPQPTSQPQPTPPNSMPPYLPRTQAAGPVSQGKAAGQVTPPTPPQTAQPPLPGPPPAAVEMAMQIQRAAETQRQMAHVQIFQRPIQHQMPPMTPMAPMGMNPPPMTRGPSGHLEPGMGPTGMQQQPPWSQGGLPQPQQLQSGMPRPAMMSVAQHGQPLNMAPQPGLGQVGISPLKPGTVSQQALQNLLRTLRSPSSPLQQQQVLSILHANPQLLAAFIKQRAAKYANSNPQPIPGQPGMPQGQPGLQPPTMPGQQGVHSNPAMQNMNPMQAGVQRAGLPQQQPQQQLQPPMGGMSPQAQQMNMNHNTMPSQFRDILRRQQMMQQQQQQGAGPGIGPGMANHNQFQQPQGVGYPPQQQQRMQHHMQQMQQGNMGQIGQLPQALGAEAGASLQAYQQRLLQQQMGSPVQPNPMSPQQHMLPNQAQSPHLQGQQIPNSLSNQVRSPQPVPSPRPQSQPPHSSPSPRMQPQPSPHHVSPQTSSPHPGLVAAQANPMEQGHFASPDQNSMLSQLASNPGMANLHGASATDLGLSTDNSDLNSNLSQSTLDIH
UniProt Q6ZUJ4: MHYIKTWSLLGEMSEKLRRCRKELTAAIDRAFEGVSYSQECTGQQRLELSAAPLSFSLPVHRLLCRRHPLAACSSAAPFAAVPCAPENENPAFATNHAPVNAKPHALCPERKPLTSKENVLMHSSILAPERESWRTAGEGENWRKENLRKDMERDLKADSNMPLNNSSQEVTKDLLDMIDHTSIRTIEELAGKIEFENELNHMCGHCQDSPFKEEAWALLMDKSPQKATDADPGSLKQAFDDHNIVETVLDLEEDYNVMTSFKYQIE

This is an account of results in patent publication US20240309360A1, “TRANS-ACTIVATORS AND METHODS AND USE THEREOF” (THE GOVERNING COUNCIL OF THE UNIVERSITY OF TORONTO, priority 2021, published 2024).

No constants are given. Whether binding was seen depends on the method and setting. In cells and extracts the contact can be indirect. Some results given as binding are weak or reduced against the parent protein; the word gives no strength.

Turning to “C3orf62 fused to BioID2 (BirA from Aquifex aeolicus) and FLAG (from UniProt Q6ZUJ4 1-267)”, the binding entry with CBP (human) and with p300 (human) was “binds” each time.
